Source: paper PMC5908787
Results are given in words; binding and its absence hold for the method and conditions named. Binding seen in cells or lysates may run through a third protein. Some binding calls cover weakened binding; strength is not graded here. For part of these data: Sequences can lack the tags named with a protein.

Protein sequences, listed by entry. Tags and fused reporters are not part of them.
UniProt Q62406: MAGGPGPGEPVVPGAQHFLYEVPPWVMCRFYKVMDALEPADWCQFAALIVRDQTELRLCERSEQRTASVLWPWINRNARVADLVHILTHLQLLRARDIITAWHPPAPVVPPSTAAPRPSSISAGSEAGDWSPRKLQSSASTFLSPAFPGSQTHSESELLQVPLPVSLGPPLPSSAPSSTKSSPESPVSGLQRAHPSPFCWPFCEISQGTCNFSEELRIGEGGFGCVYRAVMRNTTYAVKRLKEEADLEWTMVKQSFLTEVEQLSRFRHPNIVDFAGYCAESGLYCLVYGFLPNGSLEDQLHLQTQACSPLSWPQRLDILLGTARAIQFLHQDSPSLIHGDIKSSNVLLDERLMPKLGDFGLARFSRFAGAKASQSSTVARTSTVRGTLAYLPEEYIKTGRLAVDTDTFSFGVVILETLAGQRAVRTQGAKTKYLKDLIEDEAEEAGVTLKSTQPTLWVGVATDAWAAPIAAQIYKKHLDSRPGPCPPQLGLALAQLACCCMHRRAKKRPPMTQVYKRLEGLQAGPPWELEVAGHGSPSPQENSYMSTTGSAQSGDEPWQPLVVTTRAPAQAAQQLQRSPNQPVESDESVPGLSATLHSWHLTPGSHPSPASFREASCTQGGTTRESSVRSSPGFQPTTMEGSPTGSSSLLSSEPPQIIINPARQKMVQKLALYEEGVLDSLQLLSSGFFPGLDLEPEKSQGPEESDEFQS
UniProt Q8R4B8: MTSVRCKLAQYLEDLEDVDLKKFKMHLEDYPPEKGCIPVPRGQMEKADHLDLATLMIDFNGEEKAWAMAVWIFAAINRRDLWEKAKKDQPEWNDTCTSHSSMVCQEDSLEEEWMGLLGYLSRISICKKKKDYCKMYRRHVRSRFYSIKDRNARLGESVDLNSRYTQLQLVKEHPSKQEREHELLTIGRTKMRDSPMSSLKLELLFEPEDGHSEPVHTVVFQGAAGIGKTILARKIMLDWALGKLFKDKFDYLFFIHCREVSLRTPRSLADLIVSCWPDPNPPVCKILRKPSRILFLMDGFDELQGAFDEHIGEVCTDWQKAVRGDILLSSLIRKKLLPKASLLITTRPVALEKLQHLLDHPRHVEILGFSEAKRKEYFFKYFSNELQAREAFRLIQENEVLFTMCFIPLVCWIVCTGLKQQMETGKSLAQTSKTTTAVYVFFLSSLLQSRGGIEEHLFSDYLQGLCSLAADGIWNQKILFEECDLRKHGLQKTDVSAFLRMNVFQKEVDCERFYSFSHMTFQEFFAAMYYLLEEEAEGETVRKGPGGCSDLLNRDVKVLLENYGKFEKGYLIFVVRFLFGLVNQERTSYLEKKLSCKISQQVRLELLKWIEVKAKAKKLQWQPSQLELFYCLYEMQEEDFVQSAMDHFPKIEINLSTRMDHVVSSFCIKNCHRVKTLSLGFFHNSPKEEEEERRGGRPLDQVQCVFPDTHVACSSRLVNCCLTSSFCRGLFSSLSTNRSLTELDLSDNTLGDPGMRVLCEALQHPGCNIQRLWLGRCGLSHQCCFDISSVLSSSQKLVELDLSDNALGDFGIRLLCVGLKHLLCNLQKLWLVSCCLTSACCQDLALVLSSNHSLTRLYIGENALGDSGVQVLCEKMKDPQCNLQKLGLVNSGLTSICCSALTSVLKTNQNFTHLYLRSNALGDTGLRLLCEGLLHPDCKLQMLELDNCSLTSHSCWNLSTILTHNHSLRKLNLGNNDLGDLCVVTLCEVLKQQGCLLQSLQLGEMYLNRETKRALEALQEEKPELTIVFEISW

What was measured:
[1] = target: T1, myc-tagged murine Pellino2 (mouse) (UniProt Q8BST6); assay: co-IP; IP anti-myc, blot NLRP3; immortalized WT and Irak1-/- BMDMs infected with MSCV-Peli2, 100 ng/ml LPS for the indicated times
T1 sequence: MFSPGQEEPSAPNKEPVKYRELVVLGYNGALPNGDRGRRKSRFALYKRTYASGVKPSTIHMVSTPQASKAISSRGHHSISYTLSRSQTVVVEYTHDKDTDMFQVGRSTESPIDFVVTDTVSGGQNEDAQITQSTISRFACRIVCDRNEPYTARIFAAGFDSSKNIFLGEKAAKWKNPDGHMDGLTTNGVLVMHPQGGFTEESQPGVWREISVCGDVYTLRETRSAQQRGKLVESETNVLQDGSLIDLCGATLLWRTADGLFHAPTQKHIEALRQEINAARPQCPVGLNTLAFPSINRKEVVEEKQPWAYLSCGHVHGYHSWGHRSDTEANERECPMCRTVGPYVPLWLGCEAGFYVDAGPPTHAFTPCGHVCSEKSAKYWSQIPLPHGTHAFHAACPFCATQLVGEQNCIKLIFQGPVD

[2] = target: IRAK1 (mouse (endogenous in BMDMs)) (UniProt Q62406); assay: co-IP; IP anti-IRAK1, blot NLRP3; WT and Peli2-/- BMDMs, 100 ng/ml LPS for the indicated times; 0.5x NP-40 lysis buffer, protein A-protein G-agarose overnight at 4 °C
[3] = target: T1, myc-tagged murine Pellino2 (mouse); assay: co-IP; IP anti-myc, blot NLRP3; Peli2-/- BMDMs infected with MSCV-Peli2, 100 ng/ml LPS for the indicated times; 0.5x NP-40 lysis buffer, protein A-protein G-agarose overnight at 4 °C

Measured: binding

NLRP3 (from UniProt Q8R4B8 1-1033)
binds: all assays above
